We go through one molecule from patent US8361998B2, “Compounds and their use as IKACh blockers” (AstraZeneca AB, priority 2010, dated 2013).

Protein sequences, listed by entry. Tags and fused reporters are not part of them.
UniProt P48544, whole entry: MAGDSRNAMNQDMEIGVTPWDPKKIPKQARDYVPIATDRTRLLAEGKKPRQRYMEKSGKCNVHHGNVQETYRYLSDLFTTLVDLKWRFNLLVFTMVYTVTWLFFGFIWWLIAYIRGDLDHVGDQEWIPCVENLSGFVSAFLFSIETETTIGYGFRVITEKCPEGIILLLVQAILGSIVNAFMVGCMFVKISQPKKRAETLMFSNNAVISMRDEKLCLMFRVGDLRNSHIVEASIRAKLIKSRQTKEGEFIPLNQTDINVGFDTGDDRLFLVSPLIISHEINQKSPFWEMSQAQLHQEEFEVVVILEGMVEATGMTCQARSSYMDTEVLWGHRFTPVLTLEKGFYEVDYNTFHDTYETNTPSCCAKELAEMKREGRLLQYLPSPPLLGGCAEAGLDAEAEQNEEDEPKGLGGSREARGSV
UniProt P48549, whole entry: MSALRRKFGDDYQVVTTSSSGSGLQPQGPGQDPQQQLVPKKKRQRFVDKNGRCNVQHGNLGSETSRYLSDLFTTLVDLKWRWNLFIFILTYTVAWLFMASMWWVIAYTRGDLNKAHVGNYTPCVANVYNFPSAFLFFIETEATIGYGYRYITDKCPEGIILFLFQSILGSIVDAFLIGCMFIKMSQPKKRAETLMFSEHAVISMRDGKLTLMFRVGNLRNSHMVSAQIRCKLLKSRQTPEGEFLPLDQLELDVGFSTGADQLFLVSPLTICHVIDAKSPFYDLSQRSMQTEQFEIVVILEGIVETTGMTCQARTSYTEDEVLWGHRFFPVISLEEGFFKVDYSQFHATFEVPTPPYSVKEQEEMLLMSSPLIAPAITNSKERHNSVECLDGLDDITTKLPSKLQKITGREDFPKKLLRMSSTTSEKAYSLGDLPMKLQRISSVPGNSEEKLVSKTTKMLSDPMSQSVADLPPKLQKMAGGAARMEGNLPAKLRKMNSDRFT

Molecules are shown by their SMILES. The structures given here were assigned with low confidence; some may be wrong.

For the test, the target named is human cardiac ion channel proteins hKir3.1/Kir3.4 (Homo sapiens, UniProt P48544+P48549). As to the kind of experiment: Atomic Absorption Screening (AAS) Rb efflux assay of hKir3.1/Kir3.4 block, carbachol/high K+ stimulated, 10-pt or 7-pt CR. Conditions: read-out: IKACh IC50 10-pt CR, AAS, 10-pt CR (0.003 to 67 μmol/L), CHO-K1 cells expressing hKir3.1/Kir3.4, mean of >4 replicates. The text has this: Human KCNJ3 encoding Kir3.1 (Genbank acc. No. NM_002239) was inserted between EcoRI and NotI in the pIRESneo3 vector (Clontech Laboratories, Inc. CA, USA). Human KCNJ5 encoding Kir3.4 (Genbank Acc. No. BC069482) was inserted between EcoR1 and Not1 in the pIRESpuro3 vector (Clontech Laboratories, Inc. CA, USA). A Kozak sequence (GCCACC) was introduced before the start codon ATG of both constructs. Chinese Hamster Ovary K1, CHO-FLP/IN, cells (Invitrogen Corporation, Paisley, UK) were transfected simultaneously using Lipofectamine 2000 reagent (Invitrogen Corporation, Paisley, UK). Geneticin 600 μg/mL (Invitrogen Corporation, Paisley, UK) and puromycin 3 μg/mL (BD Bioscience) were added to the cell culture medium 3 days after transfection. Two weeks after transfection, colonies had appeared and were manually picked and sorted to one cell per well in a 96-well plate. […]
The blocking effects of compounds on the human cardiac ion channel proteins hKir3.1/Kir3.4 were assessed in CHO-K1 cells stably expressing the channel proteins using Atomic Absorption Screening (AAS). […] After 10 min stimulation, […] of the supernatant was transferred to a new microplate, 45 μL washing buffer added to the supernatant and the level of Rb in the supernatant was then measured using an Aurora ICR 8000. […]

With `CCC[C@@H](CN1CC(O)C1C)N(C)C(=O)c1ccc(F)cc1` (single isomer, unassigned) [43.6, isomer 2], the IC50 was 9 µM.
